Test results taken from PMC12040169 (PLOS Biology, 2025).
Some of the results follow.

system: T1, CTL2-GFP (C. trachomatis L2/434/Bu, GFP-expressing); design: species or system HeLa; Intracellular C. trachomatis growth in HeLa cells, bulk GFP fluorescence relative to DMSO; conditions: bulk GFP, single well; 28.5 h, 10 µM; inhibitor
T1 construct: L2/434/Bu, GFP-expressing

Structure (SMILES) | % of control remaining
Fc1ccccc1CN(CCCn1ccnc1)Cc1ccco1 [CBK282952] | 102.631%
O=C1NC(=O)C(CC(=O)N2CCC3(CCCNC3)C2)N1 (stereo not drawn) [CBK153232C] | 115.401%
Cc1cc(C)c(OCCCN2CCCCCC2)c(Cl)c1 [CBK266026G] | 170.597%
Cn1nccc1CN(Cc1ccc(F)cc1)Cc1cccnc1 [CBK282261] | 107.114%
COc1ccc2[nH]c(NCCCO)nc2c1 [CBK264155] | 139.057%
CCN1CCN(c2cc(C)nc3c(-c4ccccc4)cnn23)CC1 [CBK287793] | 108.181%
COc1ccc(-c2cnc3[nH]c(=O)n(C4CC4)c3n2)cc1 [CBK064907] | 143.852%
Cc1n[nH]c(C)c1CNC(=O)c1cccc2c(C)c(C)[nH]c12 [CBK283068] | 133.692%
O=C(O)CCSc1nc2ccccc2n1-c1ccccc1 [CBK264215] | 126.574%
Cc1nc(N2CCOCC2)[nH]c(=O)c1CCC(=O)Nc1ccc(F)cc1 [CBK304990] | 103.628%
COc1ccc(CCC(=O)N2CCC(N(C)Cc3ccc(-c4ccc(S(C)(=O)=O)cc4)nc3)CC2)cc1Cl [CBK164102T] | 92.9512%
CC(C)[C@H](CO)n1c(=O)[nH]c2ncc(-c3cccc(CO)c3)nc21 [CBK065001] | 146.229%
COc1ccc(-c2ccc3ccc(NC(=O)C(C)C)nc3n2)cc1C [CBK073665] | 121.207%
CCCCC(=O)NC(c1ccccc1OC)c1cc(Cl)c2cccnc2c1O (stereo not drawn) [CBK110947] | 117.584%
COCCN1CC(CNC(=O)c2ccc(N3CCCC3)c(Cl)c2)CC1=O (stereo not drawn) [CBK307680] | 114.233%
Brc1cncc2c1ccn2CCN1CCOCC1 [CBK083479] | 137.974%
NC(=O)CN1CCC(Oc2cncc(OCc3cccnc3)n2)C1 (stereo not drawn) [CBK084459] | 108.77%
O=C(O)CSc1nc2ccc([N+](=O)[O-])cc2[nH]1 [CBK265192] | 129.816%
CC(=O)N1CCN(C(C(=O)O)c2cn(Cc3ccccc3)c3ccc(C(=O)O)cc23)CC1 (stereo not drawn) [CBK286648] | 117.74%
CC1CCN(CC(C)(C)n2cncc2-c2cnn(C)c2)CC1 [CBK281738] | 93.5267%
COc1ccc(C(=O)N2C[C@@H](C)O[C@@H](C)C2)c(OC)n1 [CBK200231] | 150.483%
O=c1c(Cc2ccccc2)c(O)c2ccccc2n1Cc1ccccc1 [CBK219368] | 156.996%
Cc1nn(C)c(C)c1CNC(=O)N1CCN(CC(F)F)CC1 [CBK304249] | 90.6336%
Cc1cc(C)n2nc(C(=O)N3CCC(C)CC3c3ccco3)nc2n1 (stereo not drawn) [CBK305196] | 142.108%
COc1ccnc(N2CCN(C(=O)c3c4c(nn3C)CCCC4)CC2)n1 [CBK304609] | 77.7198%
CS(=O)(=O)Nc1ccccc1C(=O)NCCCN1CCOCC1 [CBK269745] | 98.9699%

Quoted from the listing.
In % of control remaining, NC(=O)CN1CCC(Oc2cncc(OCc3cccnc3)n2)C1 (stereo not drawn) [CBK084459] has the entry 108.77%
In % of control remaining, CC(C)[C@H](CO)n1c(=O)[nH]c2ncc(-c3cccc(CO)c3)nc21 [CBK065001] has the entry 146.229%
In % of control remaining, COc1ccc(C(=O)N2C[C@@H](C)O[C@@H](C)C2)c(OC)n1 [CBK200231] has the entry 150.483%

Following part:

Structure (SMILES) | % of control remaining
CCC(C)c1csc(C2CN3CCCC3CO2)n1 (stereo not drawn) [CBK304805] | 110.896%
Cc1noc(C)c1CC(=O)NC(C)c1cc2cc(Cl)ccc2o1 (stereo not drawn) [CBK281445] | 122.822%
COc1cc(Nc2nc(-c3cccc(C(=O)NCCN(C)C)c3)cn3ccnc23)cc(OC)c1OC [CBK066250] | 143.338%
COc1ccc(-n2nc([N+](=O)[O-])c(NCc3ccccn3)[n+]2[O-])cc1 [CBK268430] | 108.631%
NC(=O)c1cccc(CNC2CCCN(c3cccnn3)C2)c1 (stereo not drawn) [CBK305115] | 72.1761%
Cc1cc2ncc3c(n2n1)CC1CCC3N1C(=O)CCc1ccco1 (stereo not drawn) [CBK284380] | 117.785%
COCCn1c(Cc2ccccc2)nnc1SCc1ccc2ccccc2c1 [CBK265985] | 169.941%
Clc1ccc(OCc2ccccc2)c(CNCc2ccccn2)c1 [CBK269850C] | 90.2498%
O=C(Nc1ccc(S(=O)(=O)Nc2ncccn2)cc1)c1ccc2c(c1)OCCO2 [CBK268132] | 36.9693%
CSc1cc(CC(C)(C)C)c2cccc(F)c2n1 [CBK018791] | 122.453%
O=C1N=C(NC2CCCCCC2)SC1CCNC(=O)N1CCOCC1 (stereo not drawn) [CBK067687] | 89.4467%
O=C(Nc1cnccn1)c1ccc(Cl)cc1Cl [CBK056922] | 100.032%
CCOC(=O)c1sc(-c2c(Cl)cc(C(F)(F)F)cc2Cl)nc1O [CBK078547] | 99.1695%
O=C1NCC2(CCCN(C(=O)c3cccs3)C2)Oc2ccccc21 (stereo not drawn) [CBK284900] | 93.5128%
Cn1c(N2CC[C@H](O)C2)nc2cc(C(=O)NCCc3cscn3)ccc21 [CBK306824] | 117.475%
Cc1cnc(CNC(=O)N2CCN(C3CCN(C)CC3)CC2)cn1 [CBK155886] | 175.419%
O=C(O)CN1C(=O)/C(=C\c2ccc(Oc3ccc(C(F)(F)F)cc3[N+](=O)[O-])cc2)SC1=S [CBK264809] | 128.078%
C=CCN(CC=C)Cc1c(C)nc2ccc(CC)cc2c1O [CBK264998] | 131.292%
CS(=O)(=O)c1ccc2ncnc(NCC(CO)Cc3ccccn3)c2c1 (stereo not drawn) [CBK306493] | 99.5911%
O=C(CN1CCC2(CC1)CN(C(=O)CO)c1ccccc12)c1ccsc1 [CBK144605T] | 87.2352%
O=C(COc1cccc(Br)c1)Nc1nnc[nH]1 [CBK264063] | 126.106%
CN1CCN([C@H]2[C@@H]3OC[C@@H](O3)[C@@H](NCc3ccc(CO)o3)[C@@H]2O)CC1 [CBK288823] | 102.188%
N#Cc1sc(-c2ccc(F)cc2)cc1NC(=O)c1cccc([N+](=O)[O-])c1 [CBK066845] | 91.4713%
COc1ccc(-c2cncc(NCC3CCOCC3)n2)cc1 [CBK037285] | 79.7676%
O=C(NCCCn1ccnc1)c1ncoc1-c1ccccc1F [CBK283917] | 124.028%
